Our source for the binding values is article PMC9496954.

Protein sequences, listed by entry. Tags and fused reporters are not part of them.
UniProt P30051: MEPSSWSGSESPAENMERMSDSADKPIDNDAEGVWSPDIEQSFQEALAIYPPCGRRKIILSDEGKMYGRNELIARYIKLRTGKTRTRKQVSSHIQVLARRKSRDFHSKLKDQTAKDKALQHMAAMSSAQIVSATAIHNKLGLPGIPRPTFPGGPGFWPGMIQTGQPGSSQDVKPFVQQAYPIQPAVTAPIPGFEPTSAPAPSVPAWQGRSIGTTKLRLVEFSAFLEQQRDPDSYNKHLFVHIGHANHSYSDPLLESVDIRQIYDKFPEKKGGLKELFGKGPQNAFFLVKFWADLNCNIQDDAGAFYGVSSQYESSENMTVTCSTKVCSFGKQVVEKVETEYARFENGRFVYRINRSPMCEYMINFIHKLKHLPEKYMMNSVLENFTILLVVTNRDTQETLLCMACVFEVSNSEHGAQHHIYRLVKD
UniProt P46938: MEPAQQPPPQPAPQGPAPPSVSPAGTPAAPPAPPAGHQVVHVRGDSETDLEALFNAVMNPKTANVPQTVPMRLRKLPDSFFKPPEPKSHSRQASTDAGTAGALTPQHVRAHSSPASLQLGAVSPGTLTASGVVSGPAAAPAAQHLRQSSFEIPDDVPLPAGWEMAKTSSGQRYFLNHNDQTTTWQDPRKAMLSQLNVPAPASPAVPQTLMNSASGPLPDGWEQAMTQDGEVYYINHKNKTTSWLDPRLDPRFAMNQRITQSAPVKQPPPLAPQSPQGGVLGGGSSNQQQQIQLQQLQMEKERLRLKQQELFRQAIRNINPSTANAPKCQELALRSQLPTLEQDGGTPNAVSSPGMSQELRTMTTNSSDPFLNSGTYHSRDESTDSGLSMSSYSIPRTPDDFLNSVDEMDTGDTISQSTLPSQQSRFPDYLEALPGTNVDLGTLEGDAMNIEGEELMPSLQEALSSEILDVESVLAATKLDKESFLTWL

Results are given in words; binding and its absence hold for the method and conditions named. In cells and extracts the contact can be indirect. Some binding calls cover weakened binding; strength is not graded here.

For assay [1], the target named is TEAD1 (mouse (endogenous in adult mouse heart)) (UniProt P30051). Briefly: condition: only in control Vgll4 fl/fl hearts (VGLL4 present); co-IP; TEAD1 precipitated with mouse-origin TEAD1 antibody (BD, 610923) from adult heart lysate of control Vgll4 fl/fl mice (VGLL4 present in cardiomyocytes); immunoblot for YAP.
For assay [2] the target is unchanged. The experiment in a line: co-IP; TEAD1 precipitated with mouse-origin TEAD1 antibody (BD, 610923) from adult heart lysate of Vgll4 fl/fl and Vgll4 cKO (Myh6-Cre; Vgll4 fl/fl) mice; immunoblot of the precipitate. (A western blot detects proteins with antibodies after separation by electrophoresis.)

Consider YAP (from UniProt P46938 1-488), for which the binding entry in assay [1] is listed as “no binding”; in assay [2], “binds”.

B1: Vestigial-like 4 (VGLL4) (protein, UniProt Q80V24 1-287)
chain: MLFMKMDLLNYQYLDKMNNNIGVLCYEGEASLRGEPRMQTLPVASALSSHRTGPPPISPSKRKFSMEPGDKDLDCENDHVSKMSRIFSPHLNKTVNGDCRRDPRERSRSPIERAAAPAVSLHGGHLYASLPSLMEQPLALTKNSSDTGRSAVERQQNRPSVITCASAGARNCNLSHCPIAHSGCSAPGSASYRRPPSATATCDPVVEEHFRRSLGKNYKEPEPAPNSVSITGSVDDHFAKALGDTWLQIKAAKDSASSSPESASRRGQPASPTAHMVSHSHSPSVVS
As for B1, the binding result in assay [2] is listed as “binds”.
